Laboratory results taken from the supplement of paper PMC10849652.
The other results are listed elsewhere or left out.

Protein sequences, listed by entry. Tags and fused reporters are not part of them. Lines headed by an entry give the natural chain unless they say otherwise; changes in a name come on top.
UniProt Q8N0W3: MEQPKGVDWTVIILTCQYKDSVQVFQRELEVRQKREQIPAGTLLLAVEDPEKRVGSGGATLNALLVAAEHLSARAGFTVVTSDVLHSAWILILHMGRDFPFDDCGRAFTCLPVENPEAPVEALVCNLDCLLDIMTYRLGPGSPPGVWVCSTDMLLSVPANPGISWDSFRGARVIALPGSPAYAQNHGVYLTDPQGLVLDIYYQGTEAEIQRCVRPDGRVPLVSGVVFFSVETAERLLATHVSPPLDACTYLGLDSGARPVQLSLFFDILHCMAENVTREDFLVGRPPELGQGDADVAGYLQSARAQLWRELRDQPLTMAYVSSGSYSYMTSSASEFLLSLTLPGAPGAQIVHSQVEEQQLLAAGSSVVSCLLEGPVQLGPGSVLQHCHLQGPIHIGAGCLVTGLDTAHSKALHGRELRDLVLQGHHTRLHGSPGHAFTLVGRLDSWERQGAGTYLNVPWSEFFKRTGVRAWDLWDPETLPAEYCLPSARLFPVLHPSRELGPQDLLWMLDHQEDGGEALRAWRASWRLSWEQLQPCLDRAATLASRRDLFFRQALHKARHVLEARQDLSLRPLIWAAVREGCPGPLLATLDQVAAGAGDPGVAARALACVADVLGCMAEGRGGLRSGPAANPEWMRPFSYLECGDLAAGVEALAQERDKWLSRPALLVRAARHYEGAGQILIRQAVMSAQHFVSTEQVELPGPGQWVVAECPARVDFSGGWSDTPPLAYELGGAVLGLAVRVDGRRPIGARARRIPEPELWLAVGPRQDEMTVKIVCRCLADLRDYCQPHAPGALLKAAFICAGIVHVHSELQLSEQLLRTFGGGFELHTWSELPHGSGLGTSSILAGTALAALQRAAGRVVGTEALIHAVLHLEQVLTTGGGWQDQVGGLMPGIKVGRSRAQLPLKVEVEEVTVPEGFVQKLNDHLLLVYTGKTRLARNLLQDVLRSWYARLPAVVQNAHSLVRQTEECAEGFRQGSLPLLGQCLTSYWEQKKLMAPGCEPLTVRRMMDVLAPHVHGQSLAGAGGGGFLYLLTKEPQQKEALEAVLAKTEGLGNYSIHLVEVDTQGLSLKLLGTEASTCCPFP
UniProt Q9NUQ9: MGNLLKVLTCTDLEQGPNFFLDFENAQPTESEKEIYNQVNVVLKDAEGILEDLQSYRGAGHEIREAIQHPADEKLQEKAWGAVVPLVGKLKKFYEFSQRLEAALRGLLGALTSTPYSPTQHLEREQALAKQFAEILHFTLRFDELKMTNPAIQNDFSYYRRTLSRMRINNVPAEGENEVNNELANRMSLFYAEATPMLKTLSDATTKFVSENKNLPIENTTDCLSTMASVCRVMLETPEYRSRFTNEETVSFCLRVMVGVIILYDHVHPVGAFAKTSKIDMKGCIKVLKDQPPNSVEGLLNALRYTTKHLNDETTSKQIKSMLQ
UniProt P62942, whole entry, looked up: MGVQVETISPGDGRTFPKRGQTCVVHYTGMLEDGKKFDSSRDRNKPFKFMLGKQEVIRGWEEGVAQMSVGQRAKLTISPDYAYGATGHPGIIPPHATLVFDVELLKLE
UniProt Q9UIM3: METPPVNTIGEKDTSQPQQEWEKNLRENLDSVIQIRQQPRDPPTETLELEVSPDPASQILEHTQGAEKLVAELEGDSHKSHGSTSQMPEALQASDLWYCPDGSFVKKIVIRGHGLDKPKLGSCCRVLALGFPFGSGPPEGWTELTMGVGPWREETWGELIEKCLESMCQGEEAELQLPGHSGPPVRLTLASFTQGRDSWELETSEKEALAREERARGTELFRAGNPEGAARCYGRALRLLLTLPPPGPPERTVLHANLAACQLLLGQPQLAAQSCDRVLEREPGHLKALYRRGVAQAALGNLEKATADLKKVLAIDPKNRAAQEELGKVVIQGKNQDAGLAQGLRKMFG
UniProt Q9UKT4: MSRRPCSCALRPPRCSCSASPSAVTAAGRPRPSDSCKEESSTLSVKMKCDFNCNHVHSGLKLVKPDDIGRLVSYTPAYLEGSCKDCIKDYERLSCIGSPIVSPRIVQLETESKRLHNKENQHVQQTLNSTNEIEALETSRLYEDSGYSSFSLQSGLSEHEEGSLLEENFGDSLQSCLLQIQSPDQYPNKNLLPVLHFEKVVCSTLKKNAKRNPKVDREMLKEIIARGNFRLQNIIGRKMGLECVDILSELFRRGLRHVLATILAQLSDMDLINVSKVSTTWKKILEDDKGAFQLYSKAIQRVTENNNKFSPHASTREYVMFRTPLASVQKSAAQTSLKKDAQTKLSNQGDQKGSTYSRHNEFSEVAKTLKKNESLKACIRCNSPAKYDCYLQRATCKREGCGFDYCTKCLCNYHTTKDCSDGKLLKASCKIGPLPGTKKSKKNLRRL
UniProt P07954: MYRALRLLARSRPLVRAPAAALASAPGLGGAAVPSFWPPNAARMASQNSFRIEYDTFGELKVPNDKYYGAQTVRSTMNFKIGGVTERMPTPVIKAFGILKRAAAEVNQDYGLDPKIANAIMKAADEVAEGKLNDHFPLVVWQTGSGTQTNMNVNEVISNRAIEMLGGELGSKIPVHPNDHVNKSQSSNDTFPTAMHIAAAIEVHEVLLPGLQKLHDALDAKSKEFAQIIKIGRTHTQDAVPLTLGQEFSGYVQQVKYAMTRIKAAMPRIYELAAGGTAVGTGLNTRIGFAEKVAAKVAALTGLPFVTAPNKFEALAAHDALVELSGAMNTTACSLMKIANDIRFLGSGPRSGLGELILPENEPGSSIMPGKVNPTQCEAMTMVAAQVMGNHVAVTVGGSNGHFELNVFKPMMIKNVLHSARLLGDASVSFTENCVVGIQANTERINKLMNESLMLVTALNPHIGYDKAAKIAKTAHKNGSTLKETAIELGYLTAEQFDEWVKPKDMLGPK
UniProt Q9Y5Y0: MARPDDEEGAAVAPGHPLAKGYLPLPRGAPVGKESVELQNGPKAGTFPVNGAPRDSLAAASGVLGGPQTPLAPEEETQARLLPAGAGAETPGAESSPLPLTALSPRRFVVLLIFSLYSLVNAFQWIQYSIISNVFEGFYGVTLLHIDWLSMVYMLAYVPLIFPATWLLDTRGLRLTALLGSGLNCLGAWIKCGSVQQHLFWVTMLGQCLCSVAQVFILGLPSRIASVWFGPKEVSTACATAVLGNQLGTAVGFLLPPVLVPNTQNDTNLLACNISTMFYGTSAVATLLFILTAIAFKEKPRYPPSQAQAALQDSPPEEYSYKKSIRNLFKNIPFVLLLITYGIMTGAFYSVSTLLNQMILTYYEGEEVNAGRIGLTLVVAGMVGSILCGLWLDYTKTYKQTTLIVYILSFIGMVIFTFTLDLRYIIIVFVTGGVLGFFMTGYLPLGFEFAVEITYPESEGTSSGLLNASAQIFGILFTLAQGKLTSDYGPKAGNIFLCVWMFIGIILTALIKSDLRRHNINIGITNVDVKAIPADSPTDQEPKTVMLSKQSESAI
UniProt Q8NB91: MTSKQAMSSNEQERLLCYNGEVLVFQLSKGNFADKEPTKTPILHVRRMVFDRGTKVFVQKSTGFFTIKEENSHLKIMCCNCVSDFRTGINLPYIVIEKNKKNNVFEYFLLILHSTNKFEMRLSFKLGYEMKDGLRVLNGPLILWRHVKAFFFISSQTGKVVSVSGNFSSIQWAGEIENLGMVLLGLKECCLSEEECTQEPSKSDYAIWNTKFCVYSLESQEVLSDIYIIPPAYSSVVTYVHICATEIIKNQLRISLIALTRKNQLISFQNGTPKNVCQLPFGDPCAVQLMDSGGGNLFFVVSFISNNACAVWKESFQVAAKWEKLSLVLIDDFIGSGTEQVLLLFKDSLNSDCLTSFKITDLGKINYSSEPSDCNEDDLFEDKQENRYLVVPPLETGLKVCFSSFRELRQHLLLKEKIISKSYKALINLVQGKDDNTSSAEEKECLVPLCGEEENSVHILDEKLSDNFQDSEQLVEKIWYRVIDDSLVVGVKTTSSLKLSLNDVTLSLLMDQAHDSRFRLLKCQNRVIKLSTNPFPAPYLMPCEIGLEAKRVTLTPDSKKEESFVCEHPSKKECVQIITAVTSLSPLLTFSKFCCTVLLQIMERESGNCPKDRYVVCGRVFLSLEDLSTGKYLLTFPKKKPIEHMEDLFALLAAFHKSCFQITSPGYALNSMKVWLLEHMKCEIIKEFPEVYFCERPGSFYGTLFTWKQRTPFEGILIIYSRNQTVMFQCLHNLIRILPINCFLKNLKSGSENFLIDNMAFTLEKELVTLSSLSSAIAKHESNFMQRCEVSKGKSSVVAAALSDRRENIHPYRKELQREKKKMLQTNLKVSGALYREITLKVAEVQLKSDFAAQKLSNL
UniProt Q96CP2: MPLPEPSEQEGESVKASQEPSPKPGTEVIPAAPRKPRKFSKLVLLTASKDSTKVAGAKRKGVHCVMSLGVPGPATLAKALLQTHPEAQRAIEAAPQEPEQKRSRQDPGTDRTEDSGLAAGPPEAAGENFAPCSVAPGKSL
UniProt Q13451: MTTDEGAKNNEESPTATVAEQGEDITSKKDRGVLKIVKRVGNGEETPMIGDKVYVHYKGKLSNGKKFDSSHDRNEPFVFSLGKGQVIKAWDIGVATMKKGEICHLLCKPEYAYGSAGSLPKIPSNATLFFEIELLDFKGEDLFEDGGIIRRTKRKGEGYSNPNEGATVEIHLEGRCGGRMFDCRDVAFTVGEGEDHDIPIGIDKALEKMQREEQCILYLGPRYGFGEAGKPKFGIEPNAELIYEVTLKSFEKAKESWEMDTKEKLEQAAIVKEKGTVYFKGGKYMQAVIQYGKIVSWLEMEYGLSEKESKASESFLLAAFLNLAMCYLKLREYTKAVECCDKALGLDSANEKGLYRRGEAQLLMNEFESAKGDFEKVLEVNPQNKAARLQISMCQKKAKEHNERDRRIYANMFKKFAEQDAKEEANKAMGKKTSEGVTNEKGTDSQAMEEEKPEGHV
UniProt Q8NFF5: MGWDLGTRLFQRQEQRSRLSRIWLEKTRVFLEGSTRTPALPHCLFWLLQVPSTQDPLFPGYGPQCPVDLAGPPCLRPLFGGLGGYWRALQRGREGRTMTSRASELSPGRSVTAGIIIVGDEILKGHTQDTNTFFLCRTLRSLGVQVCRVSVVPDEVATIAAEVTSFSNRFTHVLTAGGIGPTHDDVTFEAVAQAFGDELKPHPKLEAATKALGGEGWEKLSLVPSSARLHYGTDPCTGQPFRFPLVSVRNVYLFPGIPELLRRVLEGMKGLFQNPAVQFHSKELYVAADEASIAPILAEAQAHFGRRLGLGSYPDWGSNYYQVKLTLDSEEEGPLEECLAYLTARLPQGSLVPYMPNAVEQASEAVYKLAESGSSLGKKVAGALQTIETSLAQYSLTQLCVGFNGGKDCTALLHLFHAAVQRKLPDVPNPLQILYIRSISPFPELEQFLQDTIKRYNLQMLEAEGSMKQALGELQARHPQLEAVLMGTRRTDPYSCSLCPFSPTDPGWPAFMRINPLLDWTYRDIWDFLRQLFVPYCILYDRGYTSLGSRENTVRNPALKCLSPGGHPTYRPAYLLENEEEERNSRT
UniProt Q13643: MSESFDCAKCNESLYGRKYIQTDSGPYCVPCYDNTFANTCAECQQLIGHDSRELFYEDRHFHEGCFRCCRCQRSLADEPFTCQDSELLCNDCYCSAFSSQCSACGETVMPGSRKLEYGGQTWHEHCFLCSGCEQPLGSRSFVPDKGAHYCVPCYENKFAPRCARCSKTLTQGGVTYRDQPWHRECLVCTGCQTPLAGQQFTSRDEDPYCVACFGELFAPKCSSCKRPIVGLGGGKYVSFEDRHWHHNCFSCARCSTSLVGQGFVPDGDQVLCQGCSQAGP
UniProt P09038, whole entry, looked up: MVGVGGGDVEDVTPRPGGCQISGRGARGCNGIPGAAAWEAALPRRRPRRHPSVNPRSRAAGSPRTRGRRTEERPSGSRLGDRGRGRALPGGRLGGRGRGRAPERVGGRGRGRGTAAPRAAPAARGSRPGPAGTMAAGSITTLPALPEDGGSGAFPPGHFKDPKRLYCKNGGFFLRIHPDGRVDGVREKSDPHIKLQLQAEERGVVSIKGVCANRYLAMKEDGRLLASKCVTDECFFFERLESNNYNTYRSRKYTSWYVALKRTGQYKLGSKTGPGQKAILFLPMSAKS
UniProt Q92520: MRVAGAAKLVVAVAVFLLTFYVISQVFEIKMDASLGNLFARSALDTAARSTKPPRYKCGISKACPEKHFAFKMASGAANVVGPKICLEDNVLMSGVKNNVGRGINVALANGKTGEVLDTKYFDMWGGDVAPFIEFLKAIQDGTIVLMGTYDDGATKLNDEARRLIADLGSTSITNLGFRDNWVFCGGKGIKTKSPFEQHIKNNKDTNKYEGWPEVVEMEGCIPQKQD
UniProt Q14192: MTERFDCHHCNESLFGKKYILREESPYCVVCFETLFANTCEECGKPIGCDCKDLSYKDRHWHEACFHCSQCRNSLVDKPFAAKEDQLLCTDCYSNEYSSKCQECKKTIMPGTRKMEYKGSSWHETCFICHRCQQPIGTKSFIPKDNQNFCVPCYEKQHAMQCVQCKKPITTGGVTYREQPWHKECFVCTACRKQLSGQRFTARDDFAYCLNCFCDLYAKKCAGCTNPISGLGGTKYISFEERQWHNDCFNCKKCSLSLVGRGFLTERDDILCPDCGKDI

Tests used:
Assay in all cases: log2 fold change, soluble protein after heating vs DMSO (PISA); higher = thermal stabilisation; K562 cells, 10 uM, 30 min; active = over 0.2 and 3.5 SD of the protein, either way, in both replicates (recomputed)
[1] = compound: CS(=O)(=O)c1ccc(-c2cnc(N)c(C(=O)Nc3ccccc3)n2)cc1
Outline: (§1)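 Aliquots of K562 cells (2×10^6 cells/mL) treated with 10 μM compound for 30 min were heated for 3 min over 48°C-58°C. After pooling and extraction in PBS with 0.5% NP-40 at 4°C, soluble protein from a 21,000xg, 90 min spin was quantified by TMTpro 16plex LC-MS/MS with channel sums equalised. Thermal stability is expressed against control samples, from duplicates, as a log2 fold change.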

[2] = compound: C[C@@H](Oc1cc(-c2cnn(C3CCNCC3)c2)cnc1N)c1c(Cl)ccc(F)c1Cl [crizotinib]
Outline: as §1

[3] = compound: C[C@@H]1COCCN1C2=NC(=NC(=C2)C3(CC3)S(=O)(=O)C)C4=C5C=CNC5=CC=C4
Outline: as §1

[4] = compound: C[C@H](C1=CC=C(C=C1)C(=O)NC2=C3C=CNC3=NC=C2)N
Outline: as §1

[5] = compound: C[C@H](Nc1ncnc2nc[nH]c12)c1cc2cccc(Cl)c2c(=O)n1-c1ccccc1 [duvelisib]
Outline: as §1

[6] = compound: Cc1cc(Nc2cc(CN3CCOCC3)c3nc(C)c(Cc4ccc(Cl)cc4F)n3n2)n[nH]1 [gandotinib]
Outline: as §1

[7] = compound: Cc1cc(Nc2cc(N3CCN(C)CC3)nc(Sc3ccc(NC(=O)C4CC4)cc3)n2)n[nH]1 [tozasertib]
Outline: as §1

[8] = compound: Cc1cc(SCc2sc(-c3ccc(C(F)(F)F)cc3)nc2C)ccc1OCC(=O)O
Outline: as §1

[9] = compound: Cc1ccc(-n2nc(C(C)(C)C)cc2NC(=O)Nc2ccc(OCCN3CCOCC3)c3ccccc23)cc1 [doramapimod]
Outline: as §1

[10] = compound: Cc1ccc(C(=O)N(CCCN)[C@@H](c2nc3cc(Cl)ccc3c(=O)n2Cc2ccccc2)C(C)C)cc1 [ispinesib]
Outline: as §1

Measured: log2 fold change

FCSK isoform 2 (UniProt Q8N0W3)
inactive: [1] -0.027 | [2] -0.002 | [3] 0.06 | [4] -0.022 | [5] -0.002 | [6] 0.028 | [7] -0.018 | [8] 0.006 | [9] 0.031 | [10] 0.033

FDX1 (UniProt P10109)
inactive: [1] -0.059 | [2] 0.108 | [3] -0.012 | [4] -0.049 | [5] 0.049 | [6] 0.093 | [7] 0.011 | [8] 0.039 | [9] 0.001 | [10] 0.15

FASN (UniProt P49327)
inactive: [1] 0.125 | [2] -0.023 | [3] 0.053 | [4] -0.051 | [5] 0.004 | [6] -0.082 | [7] 0.016 | [8] 0.03 | [9] 0.003 | [10] 0.057

FAM49B (UniProt Q9NUQ9)
inactive: [1] 0.019 | [2] -0.057 | [3] 0.047 | [4] -0.051 | [5] 0.039 | [6] -0.098 | [7] 0.006 | [8] 0.003 | [9] -0.009 | [10] 0.011

FKBP1A (UniProt P62942)
inactive: [1] -0.015 | [2] -0.002 | [3] 0.198 | [4] -0.106 | [5] 0.238 | [6] -0.037 | [7] 0.029 | [8] 0.17 | [9] 0.07 | [10] 0.004

FKBPL (UniProt Q9UIM3)
inactive: [1] 0.014 | [2] 0.01 | [3] 0.058 | [4] -0.074 | [5] 0.014 | [6] -0.032 | [7] -0.002 | [8] -0.04 | [9] -0.037 | [10] -0.064

FBXO5 (UniProt Q9UKT4)
inactive: [1] -0.067 | [2] 0.027 | [3] -0.04 | [4] -0.082 | [5] 0.021 | [6] -0.011 | [7] 0.012 | [8] -0.002 | [9] -0.004 | [10] -0.005

FAM86B2 (UniProt P0C5J1)
inactive: [1] 0.045

FH (UniProt P07954)
inactive: [1] 0.011 | [2] -0.014 | [3] 0.05 | [4] -0.056 | [5] 0.028 | [6] -0.003 | [7] -0.035 | [8] 0.026 | [9] 0.01 | [10] 0.08

FLVCR1 (UniProt Q9Y5Y0)
inactive: [1] -0.039 | [2] 0.066 | [3] 0.117 | [4] -0.007 | [5] 0.097 | [6] 0.013 | [7] -0.049 | [8] -0.15 | [9] 0.013 | [10] -0.003

FAM98B (UniProt Q52LJ0)
inactive: [1] -0.039 | [2] -0.051 | [3] -0.008 | [4] 0.04 | [5] 0.029 | [6] 0.01 | [7] -0.073 | [8] 0.085 | [9] 0.024 | [10] 0.037

FANCB (UniProt Q8NB91)
inactive: [1] -0.025 | [2] 0.07 | [3] -0.032 | [4] -0.043 | [5] -0.056 | [6] -0.034 | [7] -0.053 | [8] -0.06 | [9] -0.005 | [10] -0.013

FLYWCH2 (UniProt Q96CP2)
inactive: [1] -0.019 | [2] -0.002 | [3] 0.047 | [4] -0.095 | [5] 0.03 | [6] -0.133 | [7] 0.031 | [8] 0.009 | [9] -0.001 | [10] -0.021

FAM76B (UniProt Q5HYJ3)
inactive: [1] -0.016 | [2] -0.076 | [3] -0.024 | [4] 0.018 | [5] -0.073 | [6] -0.237 | [7] 0.012 | [8] 0.039 | [9] 0.123 | [10] 0.17

FN1 isoform 1 (UniProt P02751)
inactive: [1] -0.029 | [2] 0.069 | [3] 0.037 | [4] 0.01 | [5] 0.02 | [6] -0.213 | [7] -0.02 | [8] -0.144 | [9] -0.078 | [10] -0.008

FKBP5 (UniProt Q13451)
inactive: [1] 0.031 | [2] -0.106 | [3] 0.005 | [4] 0.086 | [5] -0.007 | [6] -0.073 | [7] 0.073 | [8] 0.129 | [9] 0.029 | [10] -0.131

Copied from the listing (2 entries):
FLYWCH2 (UniProt Q96CP2)
inactive: [1] -0.019 | [2] -0.002 | [3] 0.047 | [4] -0.095 | [5] 0.03 | [6] -0.133 | [7] 0.031 | [8] 0.009 | [9] -0.001 | [10] -0.021

FAM76B (UniProt Q5HYJ3)
inactive: [1] -0.016 | [2] -0.076 | [3] -0.024 | [4] 0.018 | [5] -0.073 | [6] -0.237 | [7] 0.012 | [8] 0.039 | [9] 0.123 | [10] 0.17

The listing continues.

FBXO4 (UniProt Q9UKT5)
inactive: [1] 0.072 | [2] -0.126 | [3] 0.132 | [4] -0.019 | [5] -0.071 | [6] 0.002 | [7] -0.016 | [8] 0.045 | [9] 0.014 | [10] -0.006

FAM78A (UniProt Q5JUQ0)
inactive: [1] 0.153 | [2] -0.138 | [3] 0.049 | [4] 0.291 | [5] 0.04 | [6] -0.211 | [7] 0.008 | [8] 0.011 | [9] 0.006 | [10] -0.05

FCHO2 (UniProt Q0JRZ9)
inactive: [1] 0.012 | [2] 0.057 | [3] 0.008 | [4] -0.073 | [5] -0.067 | [6] -0.158 | [7] 0.235 | [8] 0.058 | [9] 0.02 | [10] 0.027

FARSA (UniProt Q9Y285)
inactive: [1] 0 | [2] 0.018 | [3] 0.09 | [4] 0.014 | [5] -0.007 | [6] -0.014 | [7] -0.016 | [8] 0.057 | [9] -0.01 | [10] -0.036

FLAD1 (UniProt Q8NFF5)
inactive: [1] 0.177 | [2] 0.091 | [3] 0.043 | [4] -0.039 | [5] 0.136 | [6] 0.171 | [7] -0.002 | [8] 0.035 | [9] -0.043 | [10] -0.024

FHL3 (UniProt Q13643)
inactive: [1] 0.054 | [2] 0.091 | [3] 0.047 | [4] -0.06 | [5] 0.008 | [6] 0.036 | [7] -0.04 | [8] -0.062 | [9] -0.037 | [10] 0.041

FAM98A (UniProt Q8NCA5)
inactive: [1] -0.009 | [2] -0.12 | [3] -0.252 | [4] 0.32 | [5] -0.128 | [6] 0.088 | [7] 0.009 | [8] 0.068 | [9] 0.215 | [10] -0.015

FGF2 (UniProt P09038)
inactive: [1] -0.009 | [2] 0.043 | [3] 0.091 | [4] 0.088 | [5] -0.065 | [6] 0.016 | [7] -0.055 | [8] 0.042 | [9] 0.027 | [10] -0.079

FAM3C (UniProt Q92520)
inactive: [1] 0.011 | [2] -0.016 | [3] 0.145 | [4] -0.039 | [5] 0.016 | [6] 0.004 | [7] -0.021 | [8] -0.089 | [9] -0.023 | [10] 0.016

FKBP9 (UniProt O95302)
inactive: [1] -0.005 | [2] 0.058 | [3] -0.031 | [4] 0.106 | [5] -0.005 | [6] 0.096 | [7] 0.022 | [8] 0.039 | [9] 0.02 | [10] -0.015

FHL2 (UniProt Q14192)
inactive: [1] 0.011 | [2] 0.046 | [3] -0.03 | [4] 0.004 | [5] -0.026 | [6] 0.015 | [7] 0.047 | [8] -0.065 | [9] -0.03 | [10] 0.053

FLNB isoform 8 (UniProt O75369)
inactive: [1] 0.031 | [2] -0.025 | [3] 0.046 | [4] -0.049 | [5] 0.006 | [6] -0.03 | [7] 0.049 | [8] 0.039 | [9] -0.018 | [10] 0.079
